Some of the results follow. Values are raw readings; no control value is given beside them.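 First-pass screen: polymyxin B was added at a level that permeabilizes the Salmonella outer membrane while sparing the inner membrane. DMSO wells, with and without polymyxin B, defined maximum growth. Because plates differed from one another, each plate's data were ranked separately and the compounds with the lowest OD600 were carried forward as hits.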
Test system: Salmonella enterica serovar Typhimurium SL1344
Test: bacterial growth OD600 after 18 h with compound and polymyxin B; higher = more bacterial growth (less inhibition)
Conditions: 50 µM, Mueller-Hinton broth

| SMILES | bacterial growth OD600 (polymyxin B 0.75 µg/mL) | bacterial growth OD600 (polymyxin B 1 µg/mL) |
| --- | --- | --- |
| COc1ccc(CCN2C(=O)O[C@@H]3CN(Cc4nccn4C)C[C@@H]32)cc1 | 0.805 |  |
| CN(C(=O)CC(c1ccccc1)c1ccc2c(c1)OCO2)C1CCOCC1 (centres undefined) | 0.694 |  |
| Cc1nn(C)c(C)c1CN(C(=O)CC1(c2ccc(-c3ccccc3)cc2)CC(=O)N(C)C1=O)C1CC1 (centres undefined) | 0.002 |  |
| Cc1c[nH]c(CN2CCC(Oc3ccc(Cl)cc3C(=O)NC(C)(C)C)CC2)n1 |  | 0.948 |
| CC#CCN(Cc1ccco1)C(=O)c1cc(Cn2nc(C)cc2C)[nH]n1 | 0.848 |  |
| CSc1ccc(C(=O)NC2CCCN(CCc3ccccc3)C2)cc1 (centres undefined) | 0.773 |  |
| COc1ccc(CN2C[C@@H]3C[C@@H](c4cc(C)c(O)c(C)c4)N4CCC[C@@]34C2=O)cc1 | 0.74 |  |
| CCOC(=O)N1CCN(Cc2ccc3c(c2)CN(C(=O)c2cc(C4CC4)on2)CCO3)CC1 | 0.721 |  |
| COC(=O)[C@H](Cc1ccccc1)NC(=O)C1(N(C)C)Cc2ccccc2C1 | 0.746 |  |
| CO[C@H]1[C@H](NC(=O)c2cccs2)c2ccccc2C12CCN(Cc1nc(C(C)C)cs1)CC2 | 0.883 |  |
| COC1CCN(Cc2cn(C)nc2-c2ccc(C3CCCCC3)cc2)CC1 |  | 0.7 |
| CCOCCCNC1CCN(c2ccc(C(=O)N3CCN(C(=O)OCC)CC3)cc2)CC1 | 0.798 |  |
| COCC(C)NC(=O)C1CCCN(c2nc(C)c3ccc(S(C)(=O)=O)cc3n2)C1 (centres undefined) | 0.785 |  |
| O=C(NC1CC1)c1cn(C2CCCCC2)cc(C(=O)NC(c2ccccn2)C(F)(F)F)c1=O (centres undefined) | 0.013 |  |
| CCOC(=O)C1(Cc2ccccc2Cl)CCN(S(=O)(=O)c2cc(C)cs2)CC1 |  | 0.873 |
| Cc1nc(N2CCC(C(=O)NCC(C)C)CC2)nc2cc(S(C)(=O)=O)ccc12 | 0.781 |  |
| COCc1c(C(=O)NCCc2ccccn2)cnn1-c1ncc2c(n1)-c1ccccc1CCC2 | 0.824 |  |
| COCCN1C(=O)NC(Cc2cccc(F)c2)(C2CCN(C(=O)c3cccc(Cl)c3)CC2)C1=O (centres undefined) | 0.747 |  |
| O=C(CCC1CCN(C(=O)[C@@H]2C[C@@H]3C=C[C@H]2C3)CC1)N1CCN(c2ccccc2)CC1 |  | 0.879 |

3 entries from above in a different format:
SMILES	bacterial growth OD600 (polymyxin B 0.75 µg/mL)	bacterial growth OD600 (polymyxin B 1 µg/mL)
CO[C@H]1[C@H](NC(=O)c2cccs2)c2ccccc2C12CCN(Cc1nc(C(C)C)cs1)CC2	0.883	
COC1CCN(Cc2cn(C)nc2-c2ccc(C3CCCCC3)cc2)CC1		0.7
O=C(NC1CC1)c1cn(C2CCCCC2)cc(C(=O)NC(c2ccccn2)C(F)(F)F)c1=O (centres undefined)	0.013	

From the supplement of paper PMC12889115
